Results published in PubChem BioAssay AID1347423 (Functional Genomics Laboratory (NCATS/FGL), 2020).
Out of some 52,000 sequences screened, about 210 (0.4%) were called active.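 How the source made its calls: active means gene whose silencing raises cell survival under the drug, median off-target-corrected z-score across its silencing RNAs 2 or more; inactive means the rest.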 Some of the results follow.

Experiment: Resistance to Poly (ADP-Ribose) Polymerase inhibitor: Gene Identification via Genome-wide siRNA Screen
Conditions: mouse BRCA2 R2336H ES cells, olaparib, CellTiter-Glo viability; stronger effect = higher value
Outline: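 Genome-wide siRNA screen (3 siRNAs/gene, 20 nM) in mouse ES cells carrying hypomorphic BRCA2 R2336H; olaparib 500 nM added 48 h post-transfection, CellTiter-Glo viability 72 h later. Normalized to plate-median negative control; MAD z-scores, gene median, seed-adjusted.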

Sequence | z-score
GGAAACUUAAAGUGAAGGATT against Rbm28 | inactive: -0.0958
CCAUUGAGGCUACGAAAGCTT against Nefl | inactive: 0.543
GGAUUGUCAGAGAAAGAGATT against Syt3 | inactive: -0.0374
GGAAUCAUCAGGUUCAUCATT against Fpr1 | inactive: 3.22
GGAUCUCGAAAGAACUGAUTT against 4833427G06Rik | inactive: -1.98
GGAGAUACUGAAAGAGGCCTT against 1110035L05Rik | inactive: -1.03
UGUAUCUUUCUGUAGUUCUTT against Taar7e | inactive: 0.173
GGGAAUUUGCUCCUGAAAGTT against Pcdhb6 | inactive: -0.55
GGAAAGCACAGACAACAUATT against Rfxap | inactive: 0.346
GGACAAGCAGUGGCUAUUUTT against Arhgef19 | inactive: -3.37
GGAUCAUCUCAAGUCUUACTT against F7 | inactive: -1.91
GGUCAUCACGAUUGUUUUGTT against Cyp1a1 | inactive: 0.828
GGUUGUAAACCACGUGGACTT against Adam8 | inactive: 1.1
GUGGACUCCAAGCUACAAATT against Olfr1047 | inactive: 0.701
GGACCAGCUAAAUAUUAGUTT against Rgs2 | inactive: 1.07
GGCAGUGGAGUUAACAACATT against Dsg1b | inactive: 0.68
GAUAUCUUUAGCAAUGACATT against Olfr159 | inactive: -0.194
GCUGUAUCGGGUUAAUGACTT against Cpne7 | inactive: 1.11
CCUUUCUAGGUGACUACUUTT against Pemt | inactive: -1.4
GGCCCAAUGUCACUCACUATT against Sirt3 | inactive: -2.19
UUUCAAUCUGUAGCUUUCCTT against Krt2-10 | inactive: -0.436
GCUGUCUCUACGUUGGAGATT against Adamts2 | inactive: 0.746
GGAACAACGGAAAAGCGAGTT against Ankrd1 | inactive: -0.333
CCGAUGUCGCUGUAAUUGGTT against BC021611 | inactive: -0.292
CCUGCGUCUCCAGUAGUUUTT against Reps1 | inactive: 0.136
GGGACCUGAUUGUUGUUUATT against Bcap31 | inactive: 0.78
GGCAACGAGAGUCCAUUUCTT against MGC74379 | inactive: 0.241

Sequence | z-score
GGUACCAGAGGAUUCUGAUTT against Pcdhga8 | inactive: 0.265
GGGACUUCAUCCUCAUUUCTT against Smcr8 | inactive: -2.45
GGCAUGUGUGCCUAAAACCTT against Sprr4 | inactive: 0.27
GGUAGAGCAGAAUUGAAAATT against Bmx | inactive: 0.733
GGGACAGUGGACCAUUAUGTT against Rnf8 | inactive: -1.55
GGUCUACAUGUUCAAGUGUTT against Laptm5 | inactive: 0.0886
GCAGCUUCAAGAGAGCCAUTT against Rhbdl | inactive: -0.961
GGUUGGACAGUAAGAUUCATT against A630090P18 | inactive: 0.828
GGACAUUUUUGACAUCAUATT against Tubg1 | inactive: -1.1
GGUUGGUGGUGCAGAUAGATT against Krt1-1 | inactive: 0.667
GGCUGAGAUCAAGAGGAUCTT against Ap2a1 | inactive: 1.43
GGCAAAGAAGGAUUCCUGCTT against Bapx1 | inactive: 0.791
GGAGAAGUCUGGCAUCAUATT against Mapkapk5 | inactive: -0.909
GAACUUUGCCAUUGAUUUGTT against Ndufs6 | inactive: 1.03
GGCUGAACCUCAAGGUCAUTT against Chst1 | inactive: 0.512
GGUGUGCCUUUUCAAGAAATT against Hebp2 | inactive: -0.958
GCUAGUCACCAUUCUGAUUTT against Olfr141 | inactive: -0.177
CCAGAGGUUAUUCAUUCAATT against 2810421I24Rik | inactive: 0.506
GGGAUCAGAAAAGUUAACATT against Acaca | inactive: 0.643
AAAGUUCGCCGUCUCUGGGTT against Olfr426 | inactive: 1.87
GGUUCAAGGAUGAAUUAGATT against Trappc6b | inactive: 0.161
CCCAUGAUCUGGAAGAGACTT against Il1a | inactive: 2.68
GCCUGAUGUUGUUUCCAAATT against Lias | inactive: -1.14
GGGCUUUCCUCAAGGUAGUTT against Olfr62 | inactive: 0.408
GGCUUACUUGAAGCAUUUATT against Plcb4 | inactive: -1.2
CGCACCUGUAACUUAUCAGTT against Rac1 | inactive: 0.957
CGAGUUAAGUAACAGGACATT against BC025076 | inactive: -0.237

Random excerpt: three entries already listed, in no set order.
Sequence | z-score
GGGACAGUGGACCAUUAUGTT against Rnf8 | inactive: -1.55
GGUUCAAGGAUGAAUUAGATT against Trappc6b | inactive: 0.161
GGGACUUCAUCCUCAUUUCTT against Smcr8 | inactive: -2.45

Remaining list, next part:

Sequence | z-score
GGCCAAAUUUGGGUUUGGATT against 9330164H19Rik | inactive: -1.46
CCGUGAUCUUAAACCCUCUTT against Mapk7 | inactive: -1.22
GGGAUCCGAAUUCUGACCATT against 2010305C02Rik | inactive: 1.23
GGAGGUUCCUUCUUCAUCUTT against 2310002J15Rik | inactive: 0.13
GGUCGCCUACAAAAAAAAATT against Fthfd | inactive: 0.435
GGUUGACUCUACAAAAUACTT against Muc5b | inactive: -0.795
GCGAUGUGAGCAAAUGCCUTT against Twsg1 | inactive: 0.744
GGAAUUAGUCUAGAAAACGTT against D3Ertd250e | inactive: -0.744
GCAAUCGUCAAAAAGAAUCTT against 3110057O12Rik | inactive: 1.57
GGAAAAGGUGACCUGUCUCTT against AW547365 | inactive: -2.42
GGAAGAAGAUAAAGAGCGGTT against Nrgn | inactive: 0.287
CCAUGUGCGAUGUCACCAUTT against 7030401O21Rik | inactive: -0.456
CCUUUCAAGGAAAUGAUCCTT against Lgr7 | inactive: 0.143
GGCAGAAGGCCAGUGGAUUTT against Cecr6 | inactive: 0.376
GGAUGUUACUUAAUGACUATT against 6720480D16Rik | inactive: -0.676
GGCGAGAUCCUUCAAGCCUTT against Wdr6 | inactive: 0.556
CCUAACUGGGAUCGUAUUATT against Ixl | inactive: 0.819
GCAAAGGAUUUGACUUCUATT against 4921511C04Rik | inactive: -0.66
GCCAUCACGAGCUAAAACCTT against Smad5 | inactive: 0.428
CCCACCACAGUAAAGGAACTT against Rwdd3 | inactive: 0.0172
GUGUCUGCUACCAUCGAAATT against BC008155 | inactive: 1.88
GCUAUCUAGAGCCAAGAGCTT against BC060615 | inactive: 0.296
GGAGAAGAAUUAAAUGGAGTT against Pem | inactive: 0.6
GGUACGGUAUGGAGAUCGGTT against Atpaf2 | inactive: 0.0979
GGAUCACAGAAGGUCCCUATT against Nox4 | inactive: -0.969
GGGACACACCAUCAAAAGGTT against BC060737 | inactive: 1.26
GGAAAAGAUCAGAGAAUACTT against Hnrpab | inactive: 1.89

Sequence | z-score
CCUAGGCACAGCUUUGUAUTT against Apof | inactive: -1.06
GGCAAUUCAAACAAUGCAGTT against Orm1 | inactive: 0.362
CCAAAAUUCGAACAAGUGATT against Mat2b | inactive: -0.549
GGUUCCUUACGAUGUGUCATT against Nsg1 | inactive: -0.398
CCUGGUGCCUUUAUCUACCTT against Ctxn | inactive: -0.988
GGAGAAAUUCCCUUGCCACTT against 4933428M03Rik | inactive: 0.443
GGUGUCUGGAGGGAGAUUUTT against 6030441F14Rik | inactive: -1
GGACCCAAGAAGUUUUAUUTT against BC050789 | inactive: 1.61
GGCCAAGGAUCCAUCUGUATT against Magee1 | inactive: -0.0847
GCCUUUGAGUUUUUCAUGUTT against Olfr314 | inactive: -0.693
GUGAGAAGUUGUGUAGAGCTT against 1110001J03Rik | inactive: 0.783
GGCUCUGUGUUGGUAAUGATT against C030002N13Rik | inactive: 0.844
GGAGCAGAUGGUUUUCGAGTT against Copz2 | inactive: -0.486
UUCCUUUUCUUCAUGCUUUTT against Olfr104 | inactive: 0.416
GGAUGUACCCUACUUGCUATT against BC025206 | inactive: 0.519
GGGUUUUCUUUCUUUCUCUTT against Otub1 | inactive: 0.535
GCUGUGGAGUCAAGAACAGTT against Zfp75 | inactive: -0.936
GGCAAACCGACAGACUUCUTT against Riok1 | inactive: -0.0278
GGUACAGACCUUUGAAAUATT against Apobec2 | inactive: 0.347
GGAGCUUCUGACUAAUUAUTT against Srisnf2l | inactive: -2.29
GGAUCCUAUAUGUUCUUUGTT against Cabp2 | inactive: -0.709
GGUUCGACUUUCUUUGCCATT against 2810409H07Rik | inactive: 0.574
GGGAUUUGUGAUUGAACUGTT against 2510002A14Rik | inactive: 0.376
GGAACACAAAUUGUGCUUATT against Zfp462 | inactive: 0.708

Single entries from the entries so far:
Under z-score, GCUGUGGAGUCAAGAACAGTT against Zfp75 reads inactive: -0.936
Under z-score, GGCAAACCGACAGACUUCUTT against Riok1 reads inactive: -0.0278
Under z-score, GGCCAAGGAUCCAUCUGUATT against Magee1 reads inactive: -0.0847
Under z-score, CCUGGUGCCUUUAUCUACCTT against Ctxn reads inactive: -0.988
